# Where “and” joins values, the source holds several entries; their conditions need not be identical. Equal entries are not always repeated. Hit rate of the full screen: of about 400,000 compounds, about 13,000 (3.2%) were called active. This list was built around the results that the source calls inconclusive (neither active nor inactive); the mix of calls is not that of the screen. The call rests on the fitted dose curve; in most records, active means well fitted cell-killing curve with a large enough effect; inconclusive means small, poorly fitted or top-dose-only effect, or effect the other way; inactive means flat fitted curve, though single readings scatter. Potencies beside an inconclusive call are fits to weak or partial responses and may not hold up.
# Assay: qHTS assay for MDR1-selective chemotherapeutics: Primary screen using the drug-selected MDR subline cells KB-V1; further: nearly all actives have a fitted effect of over 60% in size
# Settings: KB-V1 MDR cells viability, CellTiter-Glo, 72 h; activity change, negative = cytotoxicity: at 46.1 µM (top of the series)
# How it was run: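 Readout: CellTiter-Glo luminescence, 10 min after addition. Cells: KB-V1 MDR subline, 72 h at 37 degrees C with compound. Analysis: corrected, normalized data fitted to concentration-effect curves.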
# On the % scale 0 is the no-effect control and ±100 the full control effect; potency means the concentration at half of the fitted maximal effect.
Structure (SMILES),"activity change, negative = cytotoxicity",Potency
CN1CCN(c2nc(-c3cccs3)nc3ccccc23)CC1,inactive: -11%,–
O=[N+]([O-])c1ccc(N/N=C/c2sc(N3CCOCC3)nc2-c2ccccc2)c(S(=O)(=O)Nc2ccccc2Cl)c1,–,"inconclusive: 5.17 µM [cytotoxic, full curve]"
Cc1nc(NC(=O)c2cc3c(C)nn(-c4ccccc4)c3s2)sc1C(=O)Nc1ccccc1,inactive: -24%,–
CCC(C)NCCOCCOc1ccc(Cl)c2ccccc12 (centres undefined),–,"inconclusive: 29.1 µM [cytotoxic, single point]"
N#Cc1ccc(OCC(=O)NCC2COc3ccccc3O2)cc1 (centres undefined),inactive: 7.56%,–
CN(C)S(=O)(=O)c1ccc2c(c1)C(=O)c1cc(S(=O)(=O)N(C)C)ccc1CC2,inactive: -7.52%,–
Cc1ccc(S(=O)(=O)/N=C2\SC(CC(=O)Nc3ccc(F)cc3)C(=O)N2c2ccccc2)cc1 (centres undefined),–,"inconclusive: 20.6 µM [rising, single point]"
CC(=O)C1=CCC(c2ccc(Cl)cc2)N(S(=O)(=O)c2ccccc2)C1 (centres undefined),inactive: -6.64%,–
Cc1sc(N)nc1-c1ccc(Oc2ccccc2)cc1,inactive: -0.794%,–
CC(C)[C@H](NC(=O)N1CC(=O)Nc2ccccc21)C(=O)N[C@@H](C(=O)O)c1ccccc1,–,"inconclusive: 0.517 µM [rising, full curve]"
Cc1ccc(Cc2nnc3n(-c4ccccc4)nc(C(=O)c4ccccc4)n3c2=O)cc1,–,active: 8.2 µM
OC(c1ccccc1)c1nc(-c2ccc(F)c(Cl)c2)cs1 (centres undefined),inactive: 3.14%,–
COCCNC(=O)CCC1CCN(Cc2cccc(Oc3ccccc3)c2)CC1,inactive: -13.2%,–
COc1ccc(/C=C/C(=O)c2cc(Br)ccc2O)cc1OC,inactive: -11.3%,–
CCOc1cc(CNCCCN2CCOCC2)ccc1OCC(=O)NC(C)(C)C,inactive: 10.2%,–
O=C(NC1CCN(Cc2ccc(Cl)cc2)CC1)c1cn(-c2ccccc2)nc1-c1cccnc1,inactive: -9%,–
COc1ccc(-n2c(SCC(C)=O)nc3sc(C)c(C)c3c2=O)cc1,inactive: 9.83%,–
Cc1cc(Cl)ccc1NC(=O)COC(=O)c1cc([N+](=O)[O-])ccc1N1CCOCC1,–,"inconclusive: 3.26 µM [cytotoxic, full curve]"
COC(=O)c1[nH]c2ccc(C)cc2c1NS(=O)(=O)c1ccc(F)c(C)c1,–,"inconclusive: 29.1 µM [cytotoxic, single point]"
COc1ccc(CCNCCC(=O)Nc2c(C)cc(C)cc2C)cc1OC,inactive: 0%,–
Cc1ccc(C2NC(=O)c3ccccc3N2)c(C)c1 (centres undefined),–,active: 5.8 µM
CCOc1ccc(C(=O)OCC(=O)NC(C)C)cc1,–,"inconclusive: 16.4 µM [rising, single point]"
Cc1ccc(Cl)cc1N1CCN(S(=O)(=O)c2c(C)[nH]c(C)c2C(=O)N2CCCCC2)CC1,inactive: 7.38%,–
CN(Cc1ccccc1F)c1nc(-c2cccs2)nc2ccccc12,–,"inconclusive: 20.6 µM [cytotoxic, partial curve, poor fit]"
Oc1ccc(-c2nc3ccccc3nc2-c2ccc(O)cc2O)c(O)c1,inactive: 8.6%,–

# For reference, 2 of the compounds above:
Structure (SMILES),"activity change, negative = cytotoxicity",Potency
Cc1sc(N)nc1-c1ccc(Oc2ccccc2)cc1,inactive: -0.794%,–
CC(C)[C@H](NC(=O)N1CC(=O)Nc2ccccc21)C(=O)N[C@@H](C(=O)O)c1ccccc1,–,"inconclusive: 0.517 µM [rising, full curve]"

# More structures.

Structure (SMILES),"activity change, negative = cytotoxicity",Potency
NC(=O)c1cnn2c(C(F)(F)F)cc(-c3ccccc3)nc12,–,"inconclusive: 23.1 µM [cytotoxic, single point]"
COc1ccccc1N1CCN(C(=O)c2cc(=O)c3ccc(C)cc3o2)CC1,–,"inconclusive: 18.4 µM [cytotoxic, single point]"
CCn1c(=O)cc(SCC(=O)N2CCN(C3CCCCC3)CC2)c2ccccc21,–,"inconclusive: 16.4 µM [cytotoxic, partial curve]"
Cn1c(N2CCOCC2)c(/C=N/OC(=O)c2ccc(F)cc2)c2ccccc21,–,"inconclusive: 5.8 µM [cytotoxic, full curve]"
CC(/C=N/NC(=O)COc1ccccc1C)=N\NC(=O)COc1ccccc1C,inactive: -12.1%,–
CC(C)CCNC(=O)CCCOc1cc(=O)n(C)c2ccccc12,–,active: 13 µM
O=C(c1ccc2ccccc2c1)C1CCCN(C(=O)c2noc3c2CCCC3)C1 (centres undefined),–,"inconclusive: 29.1 µM [cytotoxic, single point]"
CC(Oc1cccc(Cl)c1)C(=O)Nc1cc(S(=O)(=O)N2CCOCC2)ccc1N1CCCCC1 (centres undefined),–,active: 18.4 µM
CCn1cc(S(=O)(=O)c2ccccc2)c(=O)c2cc(F)c(N3CCCCCC3)cc21,inactive: 7.2%,–
O=[N+]([O-])c1ccccc1/C=C/CN1CCC(O)CC1,–,"inconclusive: 20.6 µM [rising, single point]"
Cc1ccc(-c2nnc(SCc3ccc(C#N)cc3)n2Cc2ccco2)cc1,inactive: -1.56%,–
CC(=O)Nc1ccc(C(=O)OCc2ccc(F)cc2)cc1,–,"inconclusive: 1.64 µM [rising, partial curve, poor fit]"
CCOC(=O)c1nnc(-c2cccs2)nc1Oc1ccccc1C(=O)OC,inactive: 1.63%,–
CCOC(=O)c1ccc(Nc2nc(=O)c3cccnc3s2)cc1,–,active: 6.51 µM
CN(C(=O)c1ccccn1)c1nnc(-c2ccccn2)s1,–,"inconclusive: 25.9 µM [rising, single point]"
Cc1ccccc1C(=O)NNC(=S)NC(=O)c1ccccc1,–,"inconclusive: 6.51 µM [cytotoxic, partial curve]"
CCOCCCn1c(=N)c(S(=O)(=O)c2ccccc2)cc2c(=O)n3cc(C)ccc3nc21,–,"inconclusive: 2.31 µM [cytotoxic, partial curve, poor fit] and inconclusive: 7.31 µM [cytotoxic, partial curve]"
COCCNC(=O)Cn1cc(/C=C(\C#N)C(=O)NC2CCCC2)c2ccccc21,inactive: 3.4%,–
c1ccc2c(c1)oc1c(NCC3CCCO3)ncnc12 (centres undefined),–,active: 16.4 µM
S=C(NCCCN1CCOCC1)Nc1ccc(Cl)cc1,–,"inconclusive: 23.1 µM [cytotoxic, single point]"
Cn1c(SCC(=O)c2ccccc2)nnc1-c1cccc(N)c1,–,"inconclusive: 29.1 µM [rising, single point]"
C=CCNc1ncnc2c1cnn2-c1ccc(OC)cc1,–,"inconclusive: 18.4 µM [cytotoxic, single point]"
CCC(C)(C)n1nnnc1C(c1ccc(C)cc1)N1CCC(C)CC1 (centres undefined),–,"inconclusive: 23.1 µM [cytotoxic, single point]"
Cc1cccc(NC(=O)CN2CCN(C(=O)CNC(=O)c3ccc(-c4ccccc4)cc3)CC2)c1C,inconclusive: -39% [cytotoxic],–
Cc1ccccc1C(=O)N1CCN(c2ccc(NC(=O)c3cccnc3)cc2)CC1,–,"inconclusive: 14.6 µM [cytotoxic, partial curve]"

# Single records (already shown):
# COc1ccccc1N1CCN(C(=O)c2cc(=O)c3ccc(C)cc3o2)CC1 is entered as Potency: inconclusive: 18.4 µM [cytotoxic, single point]
# c1ccc2c(c1)oc1c(NCC3CCCO3)ncnc12 (centres undefined) is entered as Potency: active: 16.4 µM
# Cc1ccccc1C(=O)N1CCN(c2ccc(NC(=O)c3cccnc3)cc2)CC1 is entered as Potency: inconclusive: 14.6 µM [cytotoxic, partial curve]

# (list continues)

Structure (SMILES),"activity change, negative = cytotoxicity",Potency
Cc1ccc(NS(=O)(=O)c2ccc(C(=O)N3CCCC(C(F)(F)F)C3)cc2)cc1 (centres undefined),–,"inconclusive: 29.1 µM [cytotoxic, single point]"
CCCCC1=CC2=C(c3ccco3)C(=O)C(C)(OC(=O)c3ccc(OC)cc3)C(=O)C2=CN1Cc1ccc2c(c1)OCO2 (centres undefined),inactive: 13.3%,–
CCOc1ccc(NS(=O)(=O)c2ccc(C(=O)N(CC)CC(=O)NCc3cccs3)cc2)cc1,–,"inconclusive: 18.4 µM [rising, single point]"
COc1ccc(CN(CCC(C)C)S(=O)(=O)c2ccccc2Br)cc1,–,"inconclusive: 18.4 µM [cytotoxic, single point]"
NC(=S)N/N=C/c1c(O)ccc2ccccc12,–,"inconclusive: 0.731 µM [cytotoxic, full curve, poor fit]"
CCOC(=O)Cc1csc(CC(N)=O)n1,–,"inconclusive: 29.1 µM [rising, single point]"
O=C(NCc1cccnc1)c1ccc(COc2ccc3c(c2)CCC3)o1,–,active: 18.4 µM
Cc1ccc([C@@H]2CC(=O)[C@@H]3CN(S(=O)(=O)c4ccc(C)cc4)[C@H](c4cccc(Cl)c4)C[C@@H]3N2S(=O)(=O)c2ccc(Cl)cc2)cc1,inactive: 3.23%,–
COCCNC(=O)C(=O)Nc1ccc2nc3n(c(=O)c2c1)CCCCC3,–,"inconclusive: 18.4 µM [cytotoxic, single point]"
CCOC(=O)c1c(C)[nH]c(C)c1S(=O)(=O)NC(C)Cc1ccco1 (centres undefined),inactive: -4.32%,–
Cc1ccc(C(=O)OCCn2cc(C#N)c(=O)[nH]c2=O)cc1,inactive: -6.65%,–
CCCc1nc2c3ccccc3ccn2c1Cc1ccc(OC)cc1C,inactive: 4.2%,–
Cc1ccc(C)c(OCCC(=O)NNC(=O)c2cc(C)oc2C)c1,inactive: 22.8%,–
COc1ccc(C(=O)Oc2c(Sc3ccc(C)cc3)c(C)nn2C(C)(C)C)c(OC)c1,inactive: -9.92%,–
COc1ccc(-c2nc3c(C#N)c[nH]n3c2NC2CCCCC2)cc1,inactive: -4.86%,–
CCOC(=O)c1cc2c(ccn2C)n1CC(=O)N1CCC(Cc2ccccc2)CC1,–,"inconclusive: 10.3 µM [cytotoxic, partial curve]"
COc1nc(NC2CCCCC2)nc(N2CCCCCC2)n1,–,"inconclusive: 14.1 µM [cytotoxic, single point]"
CC(C)C(NS(=O)(=O)c1ccccc1)C(=O)OCC(=O)NNC(=O)c1ccccc1 (centres undefined),–,"inconclusive: 18.4 µM [rising, single point]"
COc1ccc(-c2nc(C)c(CCNC(=O)c3cccc(C)c3)s2)cc1OC,–,"inconclusive: 8.2 µM [cytotoxic, partial curve]"
O=C(C1CC1)N(CCc1ccccc1)Cc1nc2ccccc2c(=O)[nH]1,–,active: 16.4 µM
COCCNC(=S)Nc1cc(S(=O)(=O)N2CCOCC2)ccc1N1CCCCC1,–,"inconclusive: 23.1 µM [cytotoxic, partial curve]"
CCC12CN3CC(C)(CN(C1)C3c1c(C)[nH]c3ccccc13)C2=O (centres undefined),inactive: 13.6%,–
COc1ccc(CCNC(=O)C(C)n2nc(C)c3sc4ccccc4c3c2=O)cc1OC (centres undefined),inactive: -2.55%,–
CCn1ncc(C2=NOC(C(=O)Nc3cccnc3)C2)c1C (centres undefined),–,"inconclusive: 32.6 µM [cytotoxic, partial curve, poor fit]"
